Measured values as given in article PMC7819943, “Rice protein-binding microarrays: a tool to detect cis-acting elements near promoter regions in rice”.
This is one part of the list.

By UniProt entry, the sequences of proteins in these tests, tags left out.
UniProt Q0JBA9, entry or part of it: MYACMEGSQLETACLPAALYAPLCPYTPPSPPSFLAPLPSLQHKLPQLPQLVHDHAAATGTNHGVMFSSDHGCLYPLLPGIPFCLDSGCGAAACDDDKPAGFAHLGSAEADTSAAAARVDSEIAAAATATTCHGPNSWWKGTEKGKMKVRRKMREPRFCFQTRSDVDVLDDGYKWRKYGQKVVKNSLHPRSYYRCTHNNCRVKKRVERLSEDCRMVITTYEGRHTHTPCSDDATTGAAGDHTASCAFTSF

Each sequence was assayed against OsWRKY34 (Oryza sativa, UniProt Q0JBA9 1-250) (assay: protein-binding microarray (RPBM); PBS, 2% BSA, 51.3 ng/ul salmon testes DNA, 50 uM zinc acetate, 200 nM TF, 25 C, 1 h; high values mean tight binding). Settings: protein: recombinant; tags: N-terminal polyhistidine and DsRed monomer fusion (pET32a); label: CyDye5-dUTP incorporated in the synthesized complementary strand; 3' TTTTT single-stranded linker to array surface; dsDNA, one strand shown.
How it was run: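 Binding signal is reported as fluorescence intensity per feature (arbitrary units) from an Axon 4000B scanner. Incubation used 200 nM of each Ni–NTA-purified, N-terminally polyhistidine- and DsRed-fused transcription factor from E. coli BL21-CodonPlus on a double-stranded custom Agilent array for 1 h at 25 °C, with 50 µM zinc acetate in the buffer, followed by washing.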

Sequence	binding signal
CTCGAGTGTCTCCCGTACGTCTCGCCTCGCCTGCGCCGATCGGAGTCACCTAGTGCAG	9910 fluorescence intensity (a.u.)
TCGCTCGCCTTCTCGGTTTCCTTCTATCCTTCTCCTCGCGCGGAGTCACCTAGTGCAG	15200 fluorescence intensity (a.u.)
TTGCCACGTCCCGCTTACTGTCCTGGCCCACCTAAATGTGCGGAGTCACCTAGTGCAG	9740 fluorescence intensity (a.u.)
TACCTTTCACAACCTCGACTATCATCTTGATCCGACTCGACGGAGTCACCTAGTGCAG	9770 fluorescence intensity (a.u.)
AAAAGAAACAACCAACCAGCGCCTTACCCACACGCCAAGTCGGAGTCACCTAGTGCAG	10200 fluorescence intensity (a.u.)
GAACGGAACCGCGACAAGGTTTGACCATTTGAATGTATTTCGGAGTCACCTAGTGCAG	9060 fluorescence intensity (a.u.)
ACCTGCAACAGTACTCCACCTTCTCTCATATCACCACAGTCGGAGTCACCTAGTGCAG	8420 fluorescence intensity (a.u.)
GTGTGTCTTCTAAGCCGCGTTCTCCATCATGGCCCTGAACCGGAGTCACCTAGTGCAG	8440 fluorescence intensity (a.u.)
AGTTAGCTAGCTCTTGCTTCTATCTCGTGCATAATTTAGACGGAGTCACCTAGTGCAG	8670 fluorescence intensity (a.u.)
TGCACTATTCACGTTCAACGTTTGACCGTTCGTTTTATTTCGGAGTCACCTAGTGCAG	12700 fluorescence intensity (a.u.)
AATAGTTGCCACTGTTGCACTAATTGTTGTCTTATTTCTTCGGAGTCACCTAGTGCAG	8040 fluorescence intensity (a.u.)
CTTCCTCACTTTTTCTTTCTTTCTTCCTCTCCAAGAAGACCGGAGTCACCTAGTGCAG	8180 fluorescence intensity (a.u.)
CATGAGTCGGATCGTGTGGTTGTTGTGTATGCTTCACTGACGGAGTCACCTAGTGCAG	10400 fluorescence intensity (a.u.)
TTCCTAACTCACCTATCTCCTTTTTTCACACGCACGTTTTCGGAGTCACCTAGTGCAG	8230 fluorescence intensity (a.u.)
TTCCGCGTCAACCACCACCGCGCCGGCGTGCGCCTCCGCGCGGAGTCACCTAGTGCAG	10300 fluorescence intensity (a.u.)
GTCTAAAGTCGTCTGTCTAGAAAGTGGGGTTATAGTGTGGCGGAGTCACCTAGTGCAG	8520 fluorescence intensity (a.u.)
TGTGCGATAATGTTTTCTGCTCAGTGCTTCTGGTTCACGTCGGAGTCACCTAGTGCAG	10800 fluorescence intensity (a.u.)
AGTGTAATTAATGGGCTTCTTTTCGATGGCTCTTGTTGGGCGGAGTCACCTAGTGCAG	8860 fluorescence intensity (a.u.)
CCATTAAAAACCACATCGTTCCTGTTTGACCATATCGCTACGGAGTCACCTAGTGCAG	10900 fluorescence intensity (a.u.)
ATAATCCCTATCCTTCCCAAACGGGCCCGTCGCCTAATCACGGAGTCACCTAGTGCAG	10700 fluorescence intensity (a.u.)
ACTATCGAGTACATCTCTGAAATGTTTAACTTTCAAACAGCGGAGTCACCTAGTGCAG	8050 fluorescence intensity (a.u.)

Sequence	binding signal
ACCTCTGCTTTCAATCCCAGTTCACTCTTCTTCTCTCGTACGGAGTCACCTAGTGCAG	8940 fluorescence intensity (a.u.)
AAAGTCTCTTCGCCTTATAACTCCATCTCCAGCGCCTCTTCGGAGTCACCTAGTGCAG	8050 fluorescence intensity (a.u.)
GTCAACCCTACTCCAGCTCGGTTTCAGCTCTACAGTGACTCGGAGTCACCTAGTGCAG	9330 fluorescence intensity (a.u.)
GCCATCTCCGCCTCTCCTCGCCACCACACCACTCCTCTCGCGGAGTCACCTAGTGCAG	8110 fluorescence intensity (a.u.)
CGAGGCGGAATGGGGCGGAGGAGGAGGAGGAGGAGGGAGGCGGAGTCACCTAGTGCAG	13000 fluorescence intensity (a.u.)
GGAAGGTATCACCAGATCTGGGTTGAGGGTGTGGGAGCTCCGGAGTCACCTAGTGCAG	8900 fluorescence intensity (a.u.)
AACATTGTGTCCATTGTCTTCGATCCCTCTGTCGATCTCTCGGAGTCACCTAGTGCAG	8810 fluorescence intensity (a.u.)
ATTTACATTCCTATCAAAATTTTAAATTTTTTCTATTTCTCGGAGTCACCTAGTGCAG	8780 fluorescence intensity (a.u.)
AATTGAGAGTTGTTTATAGTTGGGGTTTATGGATTTAGGGCGGAGTCACCTAGTGCAG	8290 fluorescence intensity (a.u.)
GCCGCTAGTGTCTCTAATATGTTGTCTCGTGGAAAATTTTCGGAGTCACCTAGTGCAG	10000 fluorescence intensity (a.u.)
GCGCGCGGGTGAGGAGGAGGAGGGGATGGGGAGGGGCCCGCGGAGTCACCTAGTGCAG	17700 fluorescence intensity (a.u.)
CCAGGTGTACACAGCTCCGACCAGCTTCCTTCACCAATACCGGAGTCACCTAGTGCAG	8910 fluorescence intensity (a.u.)
TTTATTCCGAATATTAATTAATCTCGTATTGGGTTCTTATCGGAGTCACCTAGTGCAG	8510 fluorescence intensity (a.u.)
GGTTTATTTGGGTCAACGGAAGTGAATCATGTTTCTTTGACGGAGTCACCTAGTGCAG	9220 fluorescence intensity (a.u.)
AGTTAGCACTCCATAAGAAGAGTGGTTTTGGGGATTGGAACGGAGTCACCTAGTGCAG	8160 fluorescence intensity (a.u.)
CTCCTCCGCCACCGCGCTCGCCTCGCCTCACCGCTGCCTTCGGAGTCACCTAGTGCAG	10000 fluorescence intensity (a.u.)
CTTCTTTTTTTCAGCCAATCACAGTGGAGTTTCCCGTTTCCGGAGTCACCTAGTGCAG	8930 fluorescence intensity (a.u.)
ACATGTGGCCCACGTGGCATTCACGTTGACTCGGCCGTCACGGAGTCACCTAGTGCAG	8360 fluorescence intensity (a.u.)
ATGTTGCGCAACACACTCTGTCTAATTTGCATGATATCCACGGAGTCACCTAGTGCAG	11300 fluorescence intensity (a.u.)
AATTACTGCTCTTATTTCTTCAGCACAGATGTCACTAATCCGGAGTCACCTAGTGCAG	10600 fluorescence intensity (a.u.)
CTTTGAAGCCCCGGGTTTGTTGCTGATGCATGGCATTTTCCGGAGTCACCTAGTGCAG	8740 fluorescence intensity (a.u.)

Sequence	binding signal
GAAAACCTAGGGTTAGGTTTGGTGGGGTTGGCAGCTTTCGCGGAGTCACCTAGTGCAG	16400 fluorescence intensity (a.u.)
ACCAACTTTACTAAGTTTTCGGCTATTTTTACAGGTAATTCGGAGTCACCTAGTGCAG	11000 fluorescence intensity (a.u.)
TAAATTTTTCATAACTATTTATATCAAATTTGGAAGAAAACGGAGTCACCTAGTGCAG	11300 fluorescence intensity (a.u.)
TAACCATCAATTTCCTCCCTGTTGCCGTACACCTGCAGCTCGGAGTCACCTAGTGCAG	8160 fluorescence intensity (a.u.)
CTCCCGTCTCCTCCGCTCCTTGCGCCGCCAAGACGAGTCGCGGAGTCACCTAGTGCAG	9360 fluorescence intensity (a.u.)
TCGCACCAACTGGTTCCAATTTGATTCATCCCACGTTTCCCGGAGTCACCTAGTGCAG	10800 fluorescence intensity (a.u.)
AGTAGCAGCAGCAGCAGCAGGCAGGAGGGAGTGGGTTTGTCGGAGTCACCTAGTGCAG	9600 fluorescence intensity (a.u.)
CCCGCCACCCGTTTCGCTCCTCACCGCGGATAAAGCGCTCCGGAGTCACCTAGTGCAG	11900 fluorescence intensity (a.u.)
ACCACTAACACCGTCCTGATTCGTCAAAGGGTTTAAGCATCGGAGTCACCTAGTGCAG	8590 fluorescence intensity (a.u.)
GACTTCTCCACGTTTCTCTGTGTTTAGGCGTCGCTAGTTACGGAGTCACCTAGTGCAG	8300 fluorescence intensity (a.u.)
TTTGCAGCAGATCATGCCTCGCACATCATGCCGTTTTGTTCGGAGTCACCTAGTGCAG	8780 fluorescence intensity (a.u.)
GGGAGGGTCGGGGTCCTCAAGGTACTCGGTGGCTTCAGACCGGAGTCACCTAGTGCAG	9900 fluorescence intensity (a.u.)
CTCGGTTCCAAATTCCACCTGCATCGCTACTCCAACTCATCGGAGTCACCTAGTGCAG	8260 fluorescence intensity (a.u.)
GCGTTACAGTTGGAGTGGATTATTTTTTTTCCTTTGTTTTCGGAGTCACCTAGTGCAG	9850 fluorescence intensity (a.u.)
CTCCCCACCGCATCGCCATCGCGTCTCCTCGCCGTCCCACCGGAGTCACCTAGTGCAG	8230 fluorescence intensity (a.u.)
CTCCACCACGCGCGCCGCATCCATCTCCGCCAAAATCCACCGGAGTCACCTAGTGCAG	10700 fluorescence intensity (a.u.)
GACAAATATGAGATGGGGTGGTCTGTTTGGATACTTTGCACGGAGTCACCTAGTGCAG	8510 fluorescence intensity (a.u.)
CGTGTTCATATGACTAGGAGGTGTGTGTAATGTCTATGTTCGGAGTCACCTAGTGCAG	10500 fluorescence intensity (a.u.)
TTATCCATTTACAGCCCGCTTCTCATCTATCTCCTCTACTCGGAGTCACCTAGTGCAG	9960 fluorescence intensity (a.u.)
GAAATATAGACACTTCCACCCATTTGCACCGCCATTTCGACGGAGTCACCTAGTGCAG	9450 fluorescence intensity (a.u.)
TGGGCCGAATAGGTACGCACGTGGGGAGGGGCGCGCAGGGCGGAGTCACCTAGTGCAG	9390 fluorescence intensity (a.u.)

Sequence	binding signal
CTTCCTTACCTCGCATGCACGTACGACCAATTTCCGTTTCCGGAGTCACCTAGTGCAG	11000 fluorescence intensity (a.u.)
CCTGCTCTTATTTCTCTTCCAGCTCATCACTTCTTCTTGCCGGAGTCACCTAGTGCAG	10400 fluorescence intensity (a.u.)
CTATCACGACACGTTACATTGGTCTCCTCTCGCGCTTACTCGGAGTCACCTAGTGCAG	10900 fluorescence intensity (a.u.)
CGCGCTTTGGCATTTCTTTTCTTTTGTTTTTCTTTTTTTTCGGAGTCACCTAGTGCAG	13700 fluorescence intensity (a.u.)
CTGTGCTGCGTTCACCTATGTTTCTCGATATCACGCCTTTCGGAGTCACCTAGTGCAG	10300 fluorescence intensity (a.u.)
TCTCCCTATTTTCTCGCAATTTTTTCTCTTCTCTCGGCCGCGGAGTCACCTAGTGCAG	8530 fluorescence intensity (a.u.)
CATTATCTTTGCCTGCACACCCTTTTTTTCCCCTGATTACCGGAGTCACCTAGTGCAG	9560 fluorescence intensity (a.u.)
TCGCCGTCGCTCTTGTCGCCGTCGCGTCGCCATCCTGTCGCGGAGTCACCTAGTGCAG	8960 fluorescence intensity (a.u.)
TCTGAATCTTGAGCCATCATTTTACCTCAGTTTTCTGATTCGGAGTCACCTAGTGCAG	9750 fluorescence intensity (a.u.)
AGGGGTGCTAATTGAGCCTATTTCGGGTGGGGCTCACTGACGGAGTCACCTAGTGCAG	15300 fluorescence intensity (a.u.)
AGTCTTCTTAATGCATTGATCCCCTGTCCTCTTGCCAAAACGGAGTCACCTAGTGCAG	9820 fluorescence intensity (a.u.)
ACTGCCTCCTCACCATCCTATCTCGTCTCGTCTCCTTCTCCGGAGTCACCTAGTGCAG	11000 fluorescence intensity (a.u.)
TCTCCTTTCATACATGCTGTTGCTGCCACCACTACTGCTCCGGAGTCACCTAGTGCAG	9680 fluorescence intensity (a.u.)
GGTCCGCGTGGGTCCCACCATTATTATTATTATTATTTTTCGGAGTCACCTAGTGCAG	10900 fluorescence intensity (a.u.)
TTGCGGGTACTGTTGCCTATTTATATGACCATACTGTTTGCGGAGTCACCTAGTGCAG	8040 fluorescence intensity (a.u.)
GAGATCTCCATGATTGCACTCTTTTTTTTTAAGTTCTTTTCGGAGTCACCTAGTGCAG	10600 fluorescence intensity (a.u.)
ATGTTTCAAATTGTATGTGTTTATTACTACTGCTATCTTACGGAGTCACCTAGTGCAG	10100 fluorescence intensity (a.u.)
CATCCAGCATGATGCAAAAGTTTGAAATTTTAGTACTTTTCGGAGTCACCTAGTGCAG	12300 fluorescence intensity (a.u.)
GCCACTATTCACTGTCCGCCAACCGTTCGATCCCGTCTACCGGAGTCACCTAGTGCAG	11700 fluorescence intensity (a.u.)
TTTTCCTTTCTTTTTTTGGACTGTTTTACCCCTGGCCCCACGGAGTCACCTAGTGCAG	11700 fluorescence intensity (a.u.)
ATGTGATGTCTGTCTTTGTCTGTTGTGTCTTTGCTGCATGCGGAGTCACCTAGTGCAG	8180 fluorescence intensity (a.u.)

Quoted from the listing (14 entries):
Sequence	binding signal
AACATTGTGTCCATTGTCTTCGATCCCTCTGTCGATCTCTCGGAGTCACCTAGTGCAG	8810 fluorescence intensity (a.u.)
ATTTACATTCCTATCAAAATTTTAAATTTTTTCTATTTCTCGGAGTCACCTAGTGCAG	8780 fluorescence intensity (a.u.)
AATTGAGAGTTGTTTATAGTTGGGGTTTATGGATTTAGGGCGGAGTCACCTAGTGCAG	8290 fluorescence intensity (a.u.)
GCCGCTAGTGTCTCTAATATGTTGTCTCGTGGAAAATTTTCGGAGTCACCTAGTGCAG	10000 fluorescence intensity (a.u.)
GCGCGCGGGTGAGGAGGAGGAGGGGATGGGGAGGGGCCCGCGGAGTCACCTAGTGCAG	17700 fluorescence intensity (a.u.)
CCAGGTGTACACAGCTCCGACCAGCTTCCTTCACCAATACCGGAGTCACCTAGTGCAG	8910 fluorescence intensity (a.u.)
TTTATTCCGAATATTAATTAATCTCGTATTGGGTTCTTATCGGAGTCACCTAGTGCAG	8510 fluorescence intensity (a.u.)
GGTTTATTTGGGTCAACGGAAGTGAATCATGTTTCTTTGACGGAGTCACCTAGTGCAG	9220 fluorescence intensity (a.u.)
AGTTAGCACTCCATAAGAAGAGTGGTTTTGGGGATTGGAACGGAGTCACCTAGTGCAG	8160 fluorescence intensity (a.u.)
CTCCTCCGCCACCGCGCTCGCCTCGCCTCACCGCTGCCTTCGGAGTCACCTAGTGCAG	10000 fluorescence intensity (a.u.)
CTTCTTTTTTTCAGCCAATCACAGTGGAGTTTCCCGTTTCCGGAGTCACCTAGTGCAG	8930 fluorescence intensity (a.u.)
ACATGTGGCCCACGTGGCATTCACGTTGACTCGGCCGTCACGGAGTCACCTAGTGCAG	8360 fluorescence intensity (a.u.)
ATGTTGCGCAACACACTCTGTCTAATTTGCATGATATCCACGGAGTCACCTAGTGCAG	11300 fluorescence intensity (a.u.)
AATTACTGCTCTTATTTCTTCAGCACAGATGTCACTAATCCGGAGTCACCTAGTGCAG	10600 fluorescence intensity (a.u.)
